Results are given in words; binding and its absence hold for the method and conditions named. A result given as binding can be weak or reduced; the word gives no strength.
Biological target: neuropilin-1 (Homo sapiens (Human))
Test: summary of the phage binding and inhibition experiments

binding: binds
Binder: CRGDK [CRGDK fragment]

From patent publication US20100172835A1 (BURNHAM INSTITUTE FOR MEDICAL RESEARCH, published 2010)
